Laboratory results reported in publication PMC5996148.
The other results are listed elsewhere or left out.

Experiments:
Experiment in all cases: protein microarray (ProtoArray v5.0), streptavidin-Alexa Fluor 647
Conditions in all cases: 3'-biotin; 20 mM Tris (pH 7.5), 5 mM MgCl2, 100 mM KCl, 0.1% Tween-20, A/T-rich and random oligonucleotide blockers; temperature not stated; high values mean tight binding
SLC7A1 (human) = tested on: SLC7A1 (human)
SLC9A3R1 (human) = tested on: SLC9A3R1 (human)
SMAD1 (human) = tested on: SMAD1 (human)
SMARCB1 (human) = tested on: SMARCB1 (human)
SMCP (human) = tested on: SMCP (human)
SMOX (human) = tested on: SMOX (human)
SMPD3 (human) = tested on: SMPD3 (human)
SMR3B (human) = tested on: SMR3B (human)
SMUG1 (human) = tested on: SMUG1 (human)
SNAP23 (human) = tested on: SNAP23 (human)

## GGGAGGCTGAGGCAGG [G4-1 biotinylated (PQS2)]
SLC7A1 (human)
  binding signal: -0.361 z-score
SLC9A3R1 (human)
  binding signal: -0.296 z-score
SMAD1 (human)
  binding signal: -0.352 z-score
SMARCB1 (human)
  binding signal: -0.253 z-score
SMCP (human)
  binding signal: -0.348 z-score
SMOX (human)
  binding signal: -0.274 z-score
SMPD3 (human)
  binding signal: -0.339 z-score
SMR3B (human)
  binding signal: -0.319 z-score
SMUG1 (human)
  binding signal: -0.327 z-score
SNAP23 (human)
  binding signal: -0.334 z-score
